From PubChem BioAssay record AID1159506 (NCATS, 2015).

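Genome-wide siRNA knockdown in TC32 Ewing sarcoma cells, comparing luciferase light from an NR0B1-promoter reporter with a CMV-promoter reporter 48 hours after transfection. Each siRNA was applied at 20 nM. A z-score of the log NR0B1-over-CMV signal, less the median of siRNAs with the same seed; more negative means a stronger specific loss of the NR0B1 reporter.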

This is part of the screen; most of the strongest results are not listed here. Sequences are the guide (antisense) strand, without overhang.

siRNA: UUUGGUUUAUGAGAAAUGA
target gene: PGBD5
seed-corrected z-score: 0.7288

siRNA: AAGGUGACAACAUAAAUUC
target gene: OR5P3
seed-corrected z-score: -1.82

siRNA: UUCUUUCAGAGAUAUACUC
target gene: SAR1B
seed-corrected z-score: 0.5495

siRNA: AUACCUAUUCUGAUAGCUG
target gene: CREBBP
seed-corrected z-score: -0.1419

siRNA: UUAUACUUCAUGCAGUUGG
target gene: BRPF3
seed-corrected z-score: -0.2148

siRNA: UAAGAUCAAAUGACUCCUG
target gene: GMNN
seed-corrected z-score: 0.07141

siRNA: UAACUGAUGACAGCCGUCG
target gene: ADCK1
seed-corrected z-score: -0.5698

siRNA: UUCUCUUAAUGGUACUCGC
target gene: TROAP
seed-corrected z-score: 0.4544

siRNA: AUAGUGACGGUCACACUCC
target gene: ANOS1
seed-corrected z-score: 0.02976

siRNA: UUUGAUGUCCGUGUAAGCC
target gene: GSK3A
seed-corrected z-score: 0.2281

siRNA: UUAUUUGAACUGGUGAAAC
target gene: ZNF534
seed-corrected z-score: -0.2702

siRNA: UCAGUGACUUUUAUAGCUG
target gene: BOLA3
seed-corrected z-score: 0.5289

siRNA: UCUCCAAUAAAGAAACUGG
target gene: UBXN4
seed-corrected z-score: 0.2017

siRNA: UACGGGAAAAUAUUGGAUG
target gene: DNA2
seed-corrected z-score: -0.3025

siRNA: AAAAGCUCCGUUUUAGCUC
target gene: MYC
seed-corrected z-score: -0.07769

siRNA: AUCUCUAUAAGUUGUAGCC
target gene: LRRTM2
seed-corrected z-score: 0.7807

siRNA: AGUGCCUUUAGUGUCGUCC
target gene: ITPRIP
seed-corrected z-score: -1.121

siRNA: UUUCCGAAGACGGUACUGC
target gene: MTCL1
seed-corrected z-score: 0.8138

siRNA: UGAGAGCUCAUUAUGAGGG
target gene: LOC729173
seed-corrected z-score: -0.00612

siRNA: UUUCAUCCAGGUUGACUGG
target gene: LOC654342
seed-corrected z-score: 0.2407

siRNA: AACUCGGCAUCGUUCUCGC
target gene: TRIM15
seed-corrected z-score: 0.1526

siRNA: UUUGUUUUAACACUUGAGG
target gene: FAM181B
seed-corrected z-score: 0.3316

siRNA: AAUAAGUUUUGGUCGAUGC
target gene: ATXN3
seed-corrected z-score: 0.4138

siRNA: AAUAACUCCAUGUCUUUUC
target gene: DYRK3
seed-corrected z-score: 0.21

siRNA: AUAGUCAAAGACGAGAAGG
target gene: NRM
seed-corrected z-score: -0.1089

siRNA: UUAGUUAGAUCAUCAUGGG
target gene: ZC3H6
seed-corrected z-score: -0.3476

siRNA: UGAUGGACAAGGUAUUCCC
target gene: TLCD1
seed-corrected z-score: 0.8765

siRNA: UUGACAAUGGAUUCAAUCU
target gene: HSCB
seed-corrected z-score: -0.0815

siRNA: UUCUUGUUAAGUGUGCCUC
target gene: PFN2
seed-corrected z-score: 0.8342

siRNA: AAGUCAUUCCUUUUGAUGU
target gene: EIF5A
seed-corrected z-score: 0.06255

siRNA: AACGUGUUGCCGUAGAUGA
target gene: GNAT1
seed-corrected z-score: 0.04611

siRNA: UAGGAUUAAUCUUACGAUG
target gene: ZNF277
seed-corrected z-score: 0.3427

siRNA: UCGGUUGUGCAAUUUCUCG
target gene: NACC1
seed-corrected z-score: -0.1533

siRNA: UUUUGUUGCUGAAUAGUCC
target gene: PARP9
seed-corrected z-score: -0.4387

siRNA: UCUUCGUUUUCUGCAACCC
target gene: UIMC1
seed-corrected z-score: 0.2776

siRNA: UCAGUUCUAGGAGUUGCUG
target gene: TET3
seed-corrected z-score: 0.177

Once more, the final 3:

- UUUUGUUGCUGAAUAGUCC against PARP9 | seed-corrected z-score -0.4387
- UCUUCGUUUUCUGCAACCC against UIMC1 | seed-corrected z-score 0.2776
- UCAGUUCUAGGAGUUGCUG against TET3 | seed-corrected z-score 0.177